Test results: publication PMC8501072
Substitutions are numbered along the chain they refer to. No constants are given. Whether binding was seen depends on the method and setting. Some binding calls cover weakened binding; strength is not graded here.

B1: C37 subunit of RNA polymerase III (protein, UniProt P36121 1-282)
chain: MSIDNKLFVTEEDEEDRTQDRADVEDESNDIDMIADENGTNSAIANEQEEKSEEVKAEDDTGEEEEDDPVIEEFPLKISGEEESLHVFQYANRPRLVGRKPAEHPFISAARYKPKSHLWEIDIPLDEQAFYNKDKAESEWNGVNVQTLKGVGVENNGQYAAFVKDMQVYLVPIERVAQLKPFFKYIDDANVTRKQEDARRNPNPSSQRAQVVTMSVKSVNDPSQNRLTGSLLAHKVADEEANIELTWAEGTFEQFKDTIVKEAEDKTLVALEKQEDYIDNLV
B2: C37* (alanine substitutions at positions 226–230) (protein, UniProt P36121 1-282)
chain: B1 chain with R226A, L227A, T228A, G229A, S230A
B3: C37^D (deletion of amino acids 226–230) (protein, UniProt P36121)
chain: MSIDNKLFVTEEDEEDRTQDRADVEDESNDIDMIADENGTNSAIANEQEEKSEEVKAEDDTGEEEEDDPVIEEFPLKISGEEESLHVFQYANRPRLVGRKPAEHPFISAARYKPKSHLWEIDIPLDEQAFYNKDKAESEWNGVNVQTLKGVGVENNGQYAAFVKDMQVYLVPIERVAQLKPFFKYIDDANVTRKQEDARRNPNPSSQRAQVVTMSVKSVNDPSQNLLAHKVADEEANIELTWAEGTFEQFKDTIVKEAEDKTLVALEKQEDYIDNLV

These binders were tested against T1, C53 subunit of RNA polymerase III (S. cerevisiae) (UniProt P25441) (assay: co-purification of co-expressed subunits (Ni-NTA, then ion exchange); both subunits co-expressed in E. coli Rosetta (DE3) pLysS; His6-C53 held on Ni-NTA, complexes eluted with 300 mM imidazole in 20 mM K-HEPES pH 8, 200 mM NaCl; after TEV cleavage SP Sepharose and Q-Sepharose (eluted with 300 mM NaCl)).
T1 sequence: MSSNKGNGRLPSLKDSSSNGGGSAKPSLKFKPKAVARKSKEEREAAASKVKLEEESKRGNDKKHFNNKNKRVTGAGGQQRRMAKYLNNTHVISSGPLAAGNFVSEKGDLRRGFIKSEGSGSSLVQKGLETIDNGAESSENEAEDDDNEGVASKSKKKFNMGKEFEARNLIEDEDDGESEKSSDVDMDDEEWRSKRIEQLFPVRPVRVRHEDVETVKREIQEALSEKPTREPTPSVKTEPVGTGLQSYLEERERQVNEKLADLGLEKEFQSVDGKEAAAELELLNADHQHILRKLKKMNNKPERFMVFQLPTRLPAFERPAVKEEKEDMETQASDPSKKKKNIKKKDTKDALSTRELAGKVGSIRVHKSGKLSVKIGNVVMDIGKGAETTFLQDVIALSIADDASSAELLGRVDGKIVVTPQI

binding, binds:
B1
B2
B3
